Literature values in patent US7687497B2, “C10-substituted camptothecin analogs” (priority 2007, dated 2010).

Details: closed E-ring lactone form; cited from earlier work

Structure (SMILES): CC[C@@]1(O)C(=O)OCc2c1cc1n(c2=O)Cc2cc3ccccc3nc2-1 [CPT, (S)-4-Ethyl-4-hydroxy-1H-pyrano[3′,4′:6,7]indolizino[1,2-b]quinoline-3,14(4H,12H)-dione]
- solubility in water: approximately 0.1 μg of drug dissolving in 1 mL of water
